Values quoted from earlier work in patent US20010022980A1, “Dietary supplement for individuals under stress” (Beth Israel Deaconess Medical Center, priority 1998, published 2001).
For at least one compound, name, drawing or mass did not settle the structure.

System: inflammation
Conditions: rats

CC/C=C\C/C=C\C/C=C\C/C=C\C/C=C\CCCC(=O)O [EPA, eicosapentaenoic acid]
fluid phase of inflammation (exudate volume and protein concentration): suppressed
